Laboratory results published in article PMC5581047.
No constants are given. Whether binding was seen depends on the method and setting. For part of these data: Binding calls can cover weak binding; strength is not graded here. For part of these data: Binding seen in cells or lysates may run through a third protein. For part of these data: Where a sequence is shown, tags or fusion partners need not be part of it.

Assays:
[1] = biological target: T1, Api5 (Apoptosis inhibitor 5), endogenous (human (endogenous in MCF7)) (UniProt Q9BZZ5); experiment: co-IP; endogenous proteins, sonicated nuclear extract of MCF7 cells (lysis buffer 150 mM NaCl, 1% Triton, 50 mM Tris HCl pH 8), BioAdembeads protein G kit; IP of Api5 or of ERα, Western blot
T1 sequence: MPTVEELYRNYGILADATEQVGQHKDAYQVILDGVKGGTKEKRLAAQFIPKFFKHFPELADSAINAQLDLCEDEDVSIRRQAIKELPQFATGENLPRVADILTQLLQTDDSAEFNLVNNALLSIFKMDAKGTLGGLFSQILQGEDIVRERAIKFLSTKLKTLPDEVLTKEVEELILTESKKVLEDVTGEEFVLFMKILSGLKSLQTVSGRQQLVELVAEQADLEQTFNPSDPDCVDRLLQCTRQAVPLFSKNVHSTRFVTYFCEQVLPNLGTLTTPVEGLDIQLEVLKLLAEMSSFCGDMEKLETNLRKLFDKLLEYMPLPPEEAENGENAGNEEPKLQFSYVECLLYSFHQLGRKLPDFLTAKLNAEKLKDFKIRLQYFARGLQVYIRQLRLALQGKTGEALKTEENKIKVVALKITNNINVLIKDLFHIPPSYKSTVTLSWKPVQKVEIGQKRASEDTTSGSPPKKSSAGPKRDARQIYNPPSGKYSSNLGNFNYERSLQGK

[2] = biological target: T2, hemagglutinin tagged wild type Api5 (HA-Api5 LXXLL) (UniProt Q9BZZ5); experiment: co-IP; MCF7 cells transfected with HA-Api5 (LXXLL or LXXAA), nuclear extract, HA Tagged Protein Isolation Kit (Miltenyi Biotec); Western blot against endogenous ERα and RPS19
T2 sequence: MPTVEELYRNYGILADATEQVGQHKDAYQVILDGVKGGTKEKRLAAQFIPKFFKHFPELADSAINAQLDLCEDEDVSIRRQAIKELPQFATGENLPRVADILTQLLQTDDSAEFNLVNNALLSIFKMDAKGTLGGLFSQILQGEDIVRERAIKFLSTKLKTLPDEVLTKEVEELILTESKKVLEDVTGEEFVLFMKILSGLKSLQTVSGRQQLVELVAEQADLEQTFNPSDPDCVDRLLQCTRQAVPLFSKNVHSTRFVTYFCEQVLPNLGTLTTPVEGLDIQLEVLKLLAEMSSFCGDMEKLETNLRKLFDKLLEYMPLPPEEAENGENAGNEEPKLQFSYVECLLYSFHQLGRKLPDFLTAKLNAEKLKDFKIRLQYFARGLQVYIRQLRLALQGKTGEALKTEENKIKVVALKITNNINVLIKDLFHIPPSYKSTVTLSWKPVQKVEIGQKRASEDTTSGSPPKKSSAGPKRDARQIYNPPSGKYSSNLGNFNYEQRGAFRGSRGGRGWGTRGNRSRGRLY

[3] = biological target: T3, mutated hemagglutinin tagged Api5 where the LXXLL has been mutated into LXXAA (UniProt Q9BZZ5); experiment: as above
T3 sequence: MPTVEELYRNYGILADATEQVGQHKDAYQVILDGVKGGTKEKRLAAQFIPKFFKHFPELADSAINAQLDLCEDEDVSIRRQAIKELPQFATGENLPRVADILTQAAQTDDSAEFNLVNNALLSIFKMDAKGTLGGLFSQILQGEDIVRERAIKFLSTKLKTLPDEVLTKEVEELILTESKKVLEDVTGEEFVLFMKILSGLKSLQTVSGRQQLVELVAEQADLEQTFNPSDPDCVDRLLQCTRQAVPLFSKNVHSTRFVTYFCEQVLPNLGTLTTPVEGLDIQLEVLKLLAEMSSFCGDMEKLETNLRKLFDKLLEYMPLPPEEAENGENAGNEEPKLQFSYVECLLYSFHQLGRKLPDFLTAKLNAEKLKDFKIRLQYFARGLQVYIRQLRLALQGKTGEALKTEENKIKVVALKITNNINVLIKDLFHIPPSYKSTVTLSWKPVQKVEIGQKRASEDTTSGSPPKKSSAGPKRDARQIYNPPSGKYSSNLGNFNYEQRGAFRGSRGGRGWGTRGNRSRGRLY

[4] = biological target: Estrogen receptor alpha (ERα), endogenous (human (endogenous in MCF7)); experiment: co-IP; endogenous proteins, sonicated nuclear extract of MCF7 cells (lysis buffer 150 mM NaCl, 1% Triton, 50 mM Tris HCl pH 8), BioAdembeads protein G kit; IP of Api5 or of ERα, Western blot
[5] = biological target: GST-ERα D domain (amino acids 251-312); experiment: pull-down; GST-ERα domains or full length bound to glutathione-Sepharose 4B beads, incubated with recombinant Api5 protein; Western blot; both purified
[6] = biological target: full length GST-ERα (1-595); experiment: as above
[7] = biological target: GST-ERα D/E/F domains (amino acids 251-595); experiment: as above
[8] = biological target: GST-ERα A/B domain (amino acids 2-184); experiment: as above
[9] = biological target: GST-ERα E/F domains (amino acids 313-599); experiment: as above

Estrogen receptor alpha (ERα), endogenous (human (endogenous in MCF7))
binding [1]: binds | binding [2]: binds | binding [3]: no binding

B1: Api5 (Apoptosis inhibitor 5), endogenous (protein, UniProt Q9BZZ5-2 1-504)
chain: MPTVEELYRNYGILADATEQVGQHKDAYQVILDGVKGGTKEKRLAAQFIPKFFKHFPELADSAINAQLDLCEDEDVSIRRQAIKELPQFATGENLPRVADILTQLLQTDDSAEFNLVNNALLSIFKMDAKGTLGGLFSQILQGEDIVRERAIKFLSTKLKTLPDEVLTKEVEELILTESKKVLEDVTGEEFVLFMKILSGLKSLQTVSGRQQLVELVAEQADLEQTFNPSDPDCVDRLLQCTRQAVPLFSKNVHSTRFVTYFCEQVLPNLGTLTTPVEGLDIQLEVLKLLAEMSSFCGDMEKLETNLRKLFDKLLEYMPLPPEEAENGENAGNEEPKLQFSYVECLLYSFHQLGRKLPDFLTAKLNAEKLKDFKIRLQYFARGLQVYIRQLRLALQGKTGEALKTEENKIKVVALKITNNINVLIKDLFHIPPSYKSTVTLSWKPVQKVEIGQKRASEDTTSGSPPKKSSAGPKRDARQIYNPPSGKYSSNLGNFNYERSLQGK
binding [4]: binds

B2: Recombinant Api5 protein (protein, UniProt Q9BZZ5 1-524)
chain: MPTVEELYRNYGILADATEQVGQHKDAYQVILDGVKGGTKEKRLAAQFIPKFFKHFPELADSAINAQLDLCEDEDVSIRRQAIKELPQFATGENLPRVADILTQLLQTDDSAEFNLVNNALLSIFKMDAKGTLGGLFSQILQGEDIVRERAIKFLSTKLKTLPDEVLTKEVEELILTESKKVLEDVTGEEFVLFMKILSGLKSLQTVSGRQQLVELVAEQADLEQTFNPSDPDCVDRLLQCTRQAVPLFSKNVHSTRFVTYFCEQVLPNLGTLTTPVEGLDIQLEVLKLLAEMSSFCGDMEKLETNLRKLFDKLLEYMPLPPEEAENGENAGNEEPKLQFSYVECLLYSFHQLGRKLPDFLTAKLNAEKLKDFKIRLQYFARGLQVYIRQLRLALQGKTGEALKTEENKIKVVALKITNNINVLIKDLFHIPPSYKSTVTLSWKPVQKVEIGQKRASEDTTSGSPPKKSSAGPKRDARQIYNPPSGKYSSNLGNFNYEQRGAFRGSRGGRGWGTRGNRSRGRLY
binding [5]: no binding | binding [6]: binds | binding [7]: no binding | binding [8]: no binding | binding [9]: no binding
